Reference: the supplement of paper PMC7666118
This is one part of the list.

Sequences of proteins named here, by UniProt entry; tags and fusion partners are left off. A change or cut given only in a name is not applied to a line headed by its entry.
UniProt Q86W42: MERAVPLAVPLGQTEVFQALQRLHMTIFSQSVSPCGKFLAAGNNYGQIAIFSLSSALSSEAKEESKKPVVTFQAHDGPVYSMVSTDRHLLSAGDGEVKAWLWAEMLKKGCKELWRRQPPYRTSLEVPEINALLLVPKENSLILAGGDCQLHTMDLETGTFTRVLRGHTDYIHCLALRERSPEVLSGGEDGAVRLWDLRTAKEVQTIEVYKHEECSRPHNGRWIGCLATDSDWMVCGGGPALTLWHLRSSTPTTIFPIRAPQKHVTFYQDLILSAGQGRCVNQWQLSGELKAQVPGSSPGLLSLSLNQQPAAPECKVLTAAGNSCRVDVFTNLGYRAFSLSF
UniProt Q9Y2B1: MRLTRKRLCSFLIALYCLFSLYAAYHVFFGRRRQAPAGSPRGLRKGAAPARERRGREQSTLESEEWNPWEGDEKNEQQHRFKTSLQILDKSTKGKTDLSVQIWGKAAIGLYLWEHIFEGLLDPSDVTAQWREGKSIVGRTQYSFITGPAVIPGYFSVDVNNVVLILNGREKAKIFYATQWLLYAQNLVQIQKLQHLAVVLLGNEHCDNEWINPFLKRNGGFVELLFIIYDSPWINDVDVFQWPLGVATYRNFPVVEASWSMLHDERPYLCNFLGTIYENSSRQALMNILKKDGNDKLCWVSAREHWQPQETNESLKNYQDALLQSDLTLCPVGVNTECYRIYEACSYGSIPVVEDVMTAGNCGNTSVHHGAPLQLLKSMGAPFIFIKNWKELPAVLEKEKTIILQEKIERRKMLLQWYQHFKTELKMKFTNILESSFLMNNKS
UniProt P02786, whole entry, looked up: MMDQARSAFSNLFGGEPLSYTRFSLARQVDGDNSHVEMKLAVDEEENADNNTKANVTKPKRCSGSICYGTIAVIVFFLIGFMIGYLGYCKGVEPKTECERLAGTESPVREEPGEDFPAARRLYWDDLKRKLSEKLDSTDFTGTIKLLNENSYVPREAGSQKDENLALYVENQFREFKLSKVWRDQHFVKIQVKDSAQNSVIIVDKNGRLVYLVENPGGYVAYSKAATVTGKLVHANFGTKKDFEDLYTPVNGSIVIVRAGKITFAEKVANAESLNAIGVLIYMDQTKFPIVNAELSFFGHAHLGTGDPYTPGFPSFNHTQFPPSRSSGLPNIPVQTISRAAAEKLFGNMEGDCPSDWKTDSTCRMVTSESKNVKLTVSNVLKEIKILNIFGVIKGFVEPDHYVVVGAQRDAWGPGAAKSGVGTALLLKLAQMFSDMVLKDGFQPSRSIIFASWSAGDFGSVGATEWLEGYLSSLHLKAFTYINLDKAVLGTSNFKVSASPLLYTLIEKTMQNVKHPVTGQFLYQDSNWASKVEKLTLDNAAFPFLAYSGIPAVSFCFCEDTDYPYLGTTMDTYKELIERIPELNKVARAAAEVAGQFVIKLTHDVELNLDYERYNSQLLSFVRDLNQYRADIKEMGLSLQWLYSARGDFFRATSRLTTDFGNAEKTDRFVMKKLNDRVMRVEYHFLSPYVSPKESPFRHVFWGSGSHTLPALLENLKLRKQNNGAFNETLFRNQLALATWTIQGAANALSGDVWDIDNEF
UniProt Q9BW92: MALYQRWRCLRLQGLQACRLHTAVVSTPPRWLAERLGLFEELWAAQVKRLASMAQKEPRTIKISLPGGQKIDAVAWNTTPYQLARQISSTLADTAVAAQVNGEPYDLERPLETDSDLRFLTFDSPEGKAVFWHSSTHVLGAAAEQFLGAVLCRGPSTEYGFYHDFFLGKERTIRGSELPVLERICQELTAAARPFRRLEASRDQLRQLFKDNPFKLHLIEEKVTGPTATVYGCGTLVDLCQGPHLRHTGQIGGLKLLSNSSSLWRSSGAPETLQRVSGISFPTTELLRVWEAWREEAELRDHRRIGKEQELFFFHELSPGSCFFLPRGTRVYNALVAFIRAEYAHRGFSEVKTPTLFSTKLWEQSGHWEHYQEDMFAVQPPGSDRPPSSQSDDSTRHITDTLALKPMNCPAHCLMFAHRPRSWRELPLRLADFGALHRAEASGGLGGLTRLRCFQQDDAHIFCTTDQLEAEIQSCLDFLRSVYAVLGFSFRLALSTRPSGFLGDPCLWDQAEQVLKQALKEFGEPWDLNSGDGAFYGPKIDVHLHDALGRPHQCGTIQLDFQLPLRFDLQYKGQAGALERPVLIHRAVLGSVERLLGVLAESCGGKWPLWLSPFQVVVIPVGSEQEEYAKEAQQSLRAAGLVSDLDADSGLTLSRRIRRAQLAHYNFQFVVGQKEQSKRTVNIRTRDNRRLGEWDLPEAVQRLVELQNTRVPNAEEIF
UniProt Q12888: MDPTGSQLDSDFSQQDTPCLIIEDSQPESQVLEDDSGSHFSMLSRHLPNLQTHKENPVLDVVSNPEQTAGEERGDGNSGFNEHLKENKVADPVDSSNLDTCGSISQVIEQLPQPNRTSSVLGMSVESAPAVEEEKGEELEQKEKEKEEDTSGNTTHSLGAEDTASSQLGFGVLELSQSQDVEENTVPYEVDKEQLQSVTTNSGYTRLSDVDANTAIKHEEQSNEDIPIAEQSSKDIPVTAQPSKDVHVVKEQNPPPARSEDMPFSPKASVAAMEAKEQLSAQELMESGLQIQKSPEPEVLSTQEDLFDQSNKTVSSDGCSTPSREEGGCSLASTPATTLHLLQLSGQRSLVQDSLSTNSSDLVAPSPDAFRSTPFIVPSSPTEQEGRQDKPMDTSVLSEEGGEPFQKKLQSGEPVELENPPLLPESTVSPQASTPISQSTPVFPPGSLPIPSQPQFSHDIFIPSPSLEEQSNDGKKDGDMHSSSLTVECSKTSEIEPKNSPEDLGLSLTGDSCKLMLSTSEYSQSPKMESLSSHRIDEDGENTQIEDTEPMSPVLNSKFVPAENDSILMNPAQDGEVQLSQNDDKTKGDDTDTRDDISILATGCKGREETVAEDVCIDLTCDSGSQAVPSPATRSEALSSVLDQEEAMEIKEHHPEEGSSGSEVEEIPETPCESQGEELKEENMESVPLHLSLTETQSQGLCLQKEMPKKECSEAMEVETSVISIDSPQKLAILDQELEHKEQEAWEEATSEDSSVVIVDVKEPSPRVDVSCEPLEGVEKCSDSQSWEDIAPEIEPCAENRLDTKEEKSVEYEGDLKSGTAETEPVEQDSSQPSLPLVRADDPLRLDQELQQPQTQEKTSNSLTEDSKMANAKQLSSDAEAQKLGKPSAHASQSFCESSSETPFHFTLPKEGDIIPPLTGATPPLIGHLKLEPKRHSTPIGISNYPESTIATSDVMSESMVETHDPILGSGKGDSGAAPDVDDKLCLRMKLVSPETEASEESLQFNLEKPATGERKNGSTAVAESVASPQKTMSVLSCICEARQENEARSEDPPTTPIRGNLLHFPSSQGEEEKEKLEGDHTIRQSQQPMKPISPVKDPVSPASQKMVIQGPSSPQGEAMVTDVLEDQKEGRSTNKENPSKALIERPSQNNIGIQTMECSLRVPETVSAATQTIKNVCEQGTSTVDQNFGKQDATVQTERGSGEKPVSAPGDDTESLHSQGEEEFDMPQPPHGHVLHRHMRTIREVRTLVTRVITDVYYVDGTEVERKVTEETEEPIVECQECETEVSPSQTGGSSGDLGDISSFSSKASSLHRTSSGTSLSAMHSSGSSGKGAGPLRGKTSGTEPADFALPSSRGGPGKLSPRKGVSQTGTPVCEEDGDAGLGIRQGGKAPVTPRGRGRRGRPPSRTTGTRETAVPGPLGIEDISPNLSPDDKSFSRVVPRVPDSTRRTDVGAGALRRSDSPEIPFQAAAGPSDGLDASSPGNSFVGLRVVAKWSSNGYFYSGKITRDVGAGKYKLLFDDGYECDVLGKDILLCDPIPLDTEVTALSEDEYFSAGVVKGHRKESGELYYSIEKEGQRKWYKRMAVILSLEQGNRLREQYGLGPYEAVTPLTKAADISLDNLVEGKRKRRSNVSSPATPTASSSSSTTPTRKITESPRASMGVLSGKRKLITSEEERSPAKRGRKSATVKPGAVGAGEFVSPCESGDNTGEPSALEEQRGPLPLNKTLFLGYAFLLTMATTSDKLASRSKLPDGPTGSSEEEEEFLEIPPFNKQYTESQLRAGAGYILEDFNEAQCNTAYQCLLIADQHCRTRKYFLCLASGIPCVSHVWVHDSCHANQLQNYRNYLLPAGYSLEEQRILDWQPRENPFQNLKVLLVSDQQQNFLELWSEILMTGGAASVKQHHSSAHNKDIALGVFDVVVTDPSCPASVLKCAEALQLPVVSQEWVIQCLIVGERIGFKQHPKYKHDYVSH
UniProt Q01085: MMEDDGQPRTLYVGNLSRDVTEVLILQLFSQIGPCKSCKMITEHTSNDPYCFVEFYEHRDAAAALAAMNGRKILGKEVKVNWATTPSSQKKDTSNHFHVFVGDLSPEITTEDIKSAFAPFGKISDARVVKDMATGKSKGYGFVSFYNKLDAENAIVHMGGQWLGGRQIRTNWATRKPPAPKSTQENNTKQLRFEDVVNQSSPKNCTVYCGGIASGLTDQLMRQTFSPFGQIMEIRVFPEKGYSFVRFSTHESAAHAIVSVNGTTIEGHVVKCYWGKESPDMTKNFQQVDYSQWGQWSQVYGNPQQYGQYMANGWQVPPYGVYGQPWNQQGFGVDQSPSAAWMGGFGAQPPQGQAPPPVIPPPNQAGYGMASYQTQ
UniProt Q9UGU0: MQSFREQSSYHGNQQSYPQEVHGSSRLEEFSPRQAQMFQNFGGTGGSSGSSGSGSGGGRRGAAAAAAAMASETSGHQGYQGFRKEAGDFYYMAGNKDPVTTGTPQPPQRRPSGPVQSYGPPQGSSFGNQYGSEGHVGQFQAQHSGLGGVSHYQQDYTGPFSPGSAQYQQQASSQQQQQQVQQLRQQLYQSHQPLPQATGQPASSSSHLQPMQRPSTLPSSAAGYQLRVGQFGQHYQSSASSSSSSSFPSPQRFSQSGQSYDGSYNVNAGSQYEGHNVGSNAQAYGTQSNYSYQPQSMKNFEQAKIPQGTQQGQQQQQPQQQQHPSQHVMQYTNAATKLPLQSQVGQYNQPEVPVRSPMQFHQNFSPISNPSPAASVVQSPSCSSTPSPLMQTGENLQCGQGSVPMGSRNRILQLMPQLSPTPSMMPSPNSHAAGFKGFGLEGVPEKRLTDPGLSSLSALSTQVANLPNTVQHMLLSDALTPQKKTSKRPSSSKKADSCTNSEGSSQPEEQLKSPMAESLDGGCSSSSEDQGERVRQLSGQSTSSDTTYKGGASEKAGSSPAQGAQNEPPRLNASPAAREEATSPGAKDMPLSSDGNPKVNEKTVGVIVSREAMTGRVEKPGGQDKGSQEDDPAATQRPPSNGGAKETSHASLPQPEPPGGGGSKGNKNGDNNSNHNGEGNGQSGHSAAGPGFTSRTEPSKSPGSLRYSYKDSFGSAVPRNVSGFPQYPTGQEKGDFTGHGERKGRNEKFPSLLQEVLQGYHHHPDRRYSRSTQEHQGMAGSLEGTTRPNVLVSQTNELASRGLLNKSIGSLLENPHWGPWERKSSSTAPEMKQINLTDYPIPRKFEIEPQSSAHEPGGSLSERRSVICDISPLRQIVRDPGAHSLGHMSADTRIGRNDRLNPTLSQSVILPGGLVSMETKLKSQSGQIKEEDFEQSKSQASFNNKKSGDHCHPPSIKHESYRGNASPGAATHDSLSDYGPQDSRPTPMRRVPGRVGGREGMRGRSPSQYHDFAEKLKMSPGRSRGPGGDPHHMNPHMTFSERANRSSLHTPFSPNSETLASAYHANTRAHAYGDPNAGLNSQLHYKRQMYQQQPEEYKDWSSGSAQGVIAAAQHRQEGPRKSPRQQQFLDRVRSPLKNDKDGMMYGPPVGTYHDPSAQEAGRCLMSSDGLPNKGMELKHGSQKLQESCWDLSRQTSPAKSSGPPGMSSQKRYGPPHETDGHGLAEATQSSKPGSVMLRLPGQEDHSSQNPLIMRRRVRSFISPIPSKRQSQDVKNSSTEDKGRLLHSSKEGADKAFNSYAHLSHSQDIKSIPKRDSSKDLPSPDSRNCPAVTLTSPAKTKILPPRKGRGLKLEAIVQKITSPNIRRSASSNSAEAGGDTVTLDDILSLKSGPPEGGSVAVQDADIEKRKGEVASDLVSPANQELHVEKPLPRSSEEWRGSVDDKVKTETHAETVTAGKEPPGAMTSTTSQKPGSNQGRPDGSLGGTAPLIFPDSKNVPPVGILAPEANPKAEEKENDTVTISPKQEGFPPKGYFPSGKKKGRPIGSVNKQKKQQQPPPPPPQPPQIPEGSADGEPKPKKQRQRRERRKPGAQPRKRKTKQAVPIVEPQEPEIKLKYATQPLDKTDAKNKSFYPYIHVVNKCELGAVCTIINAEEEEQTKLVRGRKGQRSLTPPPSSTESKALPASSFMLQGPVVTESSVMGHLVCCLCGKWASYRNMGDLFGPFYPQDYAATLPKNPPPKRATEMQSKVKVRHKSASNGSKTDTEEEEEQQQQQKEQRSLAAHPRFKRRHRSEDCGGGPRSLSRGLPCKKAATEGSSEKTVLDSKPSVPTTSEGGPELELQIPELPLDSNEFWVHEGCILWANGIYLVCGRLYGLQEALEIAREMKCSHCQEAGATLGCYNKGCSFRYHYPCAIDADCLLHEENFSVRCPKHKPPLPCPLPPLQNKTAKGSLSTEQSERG

Compound: COc1ccc(Cn2ccc3ccc(C(=O)NO)cc32)cc1
Assay: dose-dependent thermal stabilisation call (2D-TPP, DLPTP, 10% FDR) (binary (1 = stabilised)); higher = stabilised by the compound
Conditions: system: HL-60 intact cells; concentration range 0.04-10 µM

Target | dose-dependent thermal stabilisation call
THOC6 (UniProt Q86W42) | inactive: 0
TMEM87B (UniProt Q96K49) | inactive: 0
TAF9B (UniProt Q9HBM6) | inactive: 0
TBC1D10C (UniProt Q8IV04) | inactive: 0
TM7SF3 (UniProt Q9NS93) | active: 1
TGFBRAP1 (UniProt Q8WUH2) | inactive: 0
TMEM5 (UniProt Q9Y2B1) | inactive: 0
TMC8 (UniProt Q8IU68) | inactive: 0
TFRC (UniProt P02786) | inactive: 0
TMEM106B (UniProt Q9NUM4) | inactive: 0
TIMM10 (UniProt P62072) | inactive: 0
TMEM135 (UniProt Q86UB9) | inactive: 0
TOPBP1 (UniProt Q92547) | inactive: 0
THUMPD2 (UniProt Q9BTF0) | inactive: 0
TMCO6 (UniProt Q96DC7) | inactive: 0
TMEM159 (UniProt Q96B96) | inactive: 0
TEX2 (UniProt Q8IWB9) | inactive: 0
TOR2A | inactive: 0
TLN1 (UniProt Q9Y490) | inactive: 0

Target | dose-dependent thermal stabilisation call
TATDN1 (UniProt Q6P1N9) | inactive: 0
TH1L (UniProt Q8IXH7) | inactive: 0
TCERG1 (UniProt O14776) | inactive: 0
THEM4 (UniProt Q5T1C6) | active: 1
TARS2 (UniProt Q9BW92) | inactive: 0
TOR1B (UniProt O14657) | inactive: 0
TARBP2 (UniProt Q15633) | inactive: 0
TMEM134 (UniProt Q9H6X4) | inactive: 0
TOP3B (UniProt O95985) | inactive: 0
TMEM48 (UniProt Q9BTX1) | inactive: 0
TPM4 (UniProt P67936) | inactive: 0
TP53BP1 (UniProt Q12888) | inactive: 0
TMEM205 (UniProt Q6UW68) | inactive: 0
TMF1 (UniProt P82094) | inactive: 0
TIAL1 (UniProt Q01085) | inactive: 0
TOE1 (UniProt Q96GM8) | inactive: 0
TCP10L (UniProt Q8TDR4) | inactive: 0
TCF20 (UniProt Q9UGU0) | inactive: 0

Taken from the entries so far (2 entries):
Target | dose-dependent thermal stabilisation call
TOE1 (UniProt Q96GM8) | inactive: 0
TCP10L (UniProt Q8TDR4) | inactive: 0
